Assay results reported in the supplement of paper PMC3334620.
Over roughly 33,000 sequences, “E-score (-0.5 to 0.5)” has its median near -8e-05; the highest 2% begin near 0.23. This is one part of the list.

Biological target: T1, Nrg2 (UniProt P38082)
T1 sequence: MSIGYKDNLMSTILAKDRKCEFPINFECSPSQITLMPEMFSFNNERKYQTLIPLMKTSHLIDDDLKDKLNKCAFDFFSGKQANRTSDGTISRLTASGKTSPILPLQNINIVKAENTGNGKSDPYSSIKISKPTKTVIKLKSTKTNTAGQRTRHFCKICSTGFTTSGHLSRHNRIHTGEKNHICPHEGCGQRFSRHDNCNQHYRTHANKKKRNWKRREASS
Assay: PBM E-score (8-mer binding enrichment) (E-score (-0.5 to 0.5)); higher = stronger / more preferred TF binding
Details: protein concentration: 100 nM; construct: GST-full length
Procedure: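 Universal 'all 10-mer' protein binding microarrays (Agilent AMADID 015681) probed with GST-tagged S. cerevisiae TFs (full-length or DBD) made by in vitro transcription/translation (PURExpress), about 100-200 nM. Bound TF was detected with fluorescent anti-GST. Each ungapped 8-mer (which stands for itself and its reverse complement) is scored by the PBM enrichment score (E-score), a modified Wilcoxon-Mann-Whitney statistic from -0.5 to +0.5, computed with the Universal PBM Analysis Suite. Scale: above 0.35 generally sequence-specific binding.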

Sequence	PBM E-score
AGTTCACG	-0.16
CCGAGAAG	-0.0215
CCGACAAA	0.123
AAGTTCAC	-0.0392
CGCTTCGC	-0.162
CAACTCCC	0.185
CGGTGAGC	-0.158
ATAGTGTC	0.0487
CCGCTCGA	0.0954
AACCGAAC	-0.107
CGCAAGTA	0.0376
CCTGTCTA	0.177
AATGGACA	0.086
GCGGAGAA	0.132
TGTTATAA	0.163
CCTCGTGA	-0.115
AGCTAGTG	0.00386
GTTAAGAA	-0.0145
ATTCACGG	0.0165
CCCTGTAC	0.208
CAACCCAC	0.0583
AACCCAAT	-0.0486
GTAAAAGA	0.0953
ACCAAAGT	0.014
ACAGCTGG	-0.0493

Sequence	PBM E-score
TTCCTCAA	-0.0689
AACCAGTG	-0.0973
CGAAGCAG	-0.0953
GAAAGCGC	-0.00013
GAACCTTC	0.0279
CTAATTTA	0.0763
CCTAGACG	-0.09
CACTGCAG	0.174
ATACCACG	-0.0465
AGATTCGC	0.0138
ATGGCGTG	0.0903
CGTGTACA	0.11
CACTTTAA	0.0841
ACCTTTTA	-0.23
ATCCTTTG	0.0405
CCGCCGCG	-0.00074
CACTTTTC	0.203
GTATGCAC	0.0116
GATCGGCC	-0.0571
CCTGGATA	-0.0382
AAAATCCT	-0.0569
ATGCCCGG	-0.0315
ACCAGCTC	-0.0619
CGTCAACG	-0.17
TAAGTTAA	0.123

Sequence	PBM E-score
ACATCGCG	-0.0658
CCTGCCGC	-0.148
TCGGTAAA	0.0351
GATTGTGC	0.103
AGATACTC	0.1
ACTGACGA	0.0428
AGTCTCCG	-0.115
GAAAAATA	0.13
AAGGACAT	-0.0854
GCTGCCAC	-0.138
GAGTACTC	0.23
GCAGTGTA	0.0189
TGGTGGAA	-0.0824
AGGAGCCA	-0.101
AACACTCA	0.208
ACAGGCCG	-0.0282
CCTTAAAG	0.108
CCGTGGCG	-0.103
CATGGCGG	0.0147
ATACAGAA	0.185
CATTTAGG	-0.299
AGCTGGTG	0.0637
GCTTCGGA	-0.0285
CTGCAGAA	0.0924
CCGTTCGA	0.0944

An excerpt of these results, field by field.
AACCAGTG
  PBM E-score: -0.0973
AGATTCGC
  PBM E-score: 0.0138
CCGCCGCG
  PBM E-score: -0.00074
ATGCCCGG
  PBM E-score: -0.0315

Remaining list, next part:

Sequence	PBM E-score
CGCGGCTC	0.119
CAAGTTCA	0.114
GATTATGA	0.133
CAGATGCA	-0.158
AACCACGA	0.0948
CATAACCC	0.0485
AGAAACAA	0.258
GAATTGTA	-0.0393
CTTGCAAA	0.232
CCCGCCGA	0.0275
ACATTAAG	0.0681
ACCGGTTA	-0.0536
CCCAAGGC	-0.123
GGAGGCTA	-0.271
GTTGGGTA	-0.0214
ATAATCGC	-0.0299
CCAAAAAG	0.0203
GTGTTATA	0.063
ACCACGGG	-0.117
AATTTTAC	0.0932
GCCCCCCC	-0.352
AATTAGCT	-0.00883
AGCGCGAA	0.189
CTGCGGAA	-0.0361
GATATTCA	-0.00802

Sequence	PBM E-score
AGGGTTCG	0.187
TCCTTGAA	-0.139
CCAGGTCC	-0.205
ACGGATAT	0.121
TATTGACA	-0.0889
GTTATCTA	-0.105
CGACATCG	-0.162
ACAGCCCT	-0.142
CTCTCACC	0.0549
GACCAGCA	0.15
AACACCGT	-0.11
CCCTCTTA	0.0318
CAACGTAC	-0.0377
AAGGCTTG	-0.0246
ACTAAATA	0.125
CCAGCGGA	-0.35
CGATAGCG	0.124
ACGCATGC	0.186
GTCGCGGA	-0.0972
CAAGCATA	0.105
AGGGGTAT	0.0935
CTATAATA	0.0915
CACATCCA	0.125
GCATAGGC	-0.158
AACATAGC	0.0319

Sequence	PBM E-score
ACGCCGTA	-0.0872
ACAACACT	0.178
CCAAATAC	-0.0913
CTTGCAGA	-0.0148
CTCGGAAA	-0.0457
GGATGTTA	-0.0217
AAGCGAAC	0.0401
ATACGACC	-0.0857
CGCGCTCA	0.152
CTATTTCA	0.164
CTGGGCTA	-0.0565
AAATCATA	0.21
AGCGACGG	0.059
ACGAGCAG	0.0594
CGCCAGGA	-0.025
ACATTGGC	0.0134
CATCTTCC	0.00523
ACCGTCGT	0.0641
CACCGGAC	-0.183
GGGCGAAC	0.215
CGGGCGAA	0.1
GTCGGTTA	0.055
CGGAGAGA	0.00504
TAGCGATA	0.107
AGGCGAAA	-0.0977

Sequence	PBM E-score
CAGGATGG	-0.137
CAGGTTAC	-0.0498
AACCATGA	0.122
ATCCAACG	-0.165
AATGCATT	0.154
ACCCAGTG	-0.0368
AAGGAAAC	-0.128
GAATCCAA	0.0554
GACGGGAC	-0.222
ACACACTA	0.106
ATGTCCGA	-0.0732
AATGGGGC	-0.1
AGTGGACC	0.00243
CTGTAACC	0.108
CAGGGATG	0.211
CATTAAAC	0.0682
CGATTTAA	0.0703
GCTCTCCC	-0.163
AAAATATT	0.125
CCGGGAAA	-0.0767
AAAGCATG	-0.0309
ATTATGCA	-0.00258
GGGAGGGA	-0.00072
GATTTGGA	-0.0311
CATAAATC	0.0728

Exported field by field: entries from further up
AAGGACAT
  PBM E-score: -0.0854
GCAGTGTA
  PBM E-score: 0.0189
GAATTGTA
  PBM E-score: -0.0393
ACCACGGG
  PBM E-score: -0.117

Further records follow:

Sequence	PBM E-score
GAGTAACA	0.161
ATCTTCTA	-0.0225
AAGGGTCA	0.149
CACCCTGC	0.191
ACGGAAGC	-0.0173
TACCTCAA	-0.0423
GCATTCCC	-0.0654
CGCCAGCG	-0.125
AAGGTTTA	-0.24
ACATGATC	0.0795
TTGTGAAA	0.058
GAATTGCC	-0.0288
ATATTCCC	0.206
ATCAACTA	0.201
GCAAAGGA	0.077
ACATACCC	0.153
CAAGAGGA	-0.0666
GACCAACC	-0.0119
AAAGCAGA	0.136
AAAAATTA	0.149
CTGTCACA	-0.0114
GAAAGCCA	-0.0951
ATGCGTGC	0.00553
GAATGTCC	0.0313
TAGCTGGA	-0.22

Sequence	PBM E-score
AACTTTAA	0.125
ATGAAGAC	-0.0564
AAGGATCA	0.0364
CTCGTGGA	0.00055
GAGCGTGA	-0.143
ATAAGGCA	-0.0337
CGTACGCC	-0.146
GGGAGCTA	-0.162
ATGAGTTG	0.138
ATGTAGAA	0.00739
CACAGTTA	0.187
CAATCAAG	-0.0232
AAATCGCC	0.00869
CGAAAAGA	0.199
ACTAGGCG	0.11
CGAATCGA	0.211
TGCAAACA	-0.146
CGTTGCTC	0.105
ATCCCGCG	0.294
